From patent US20090131502A1, “Biologically active compounds” (priority 2005, published 2009)
Some entries share one result that the patent states for a list of compounds.

molecular target: T1, human cathepsin K (Homo sapiens, UniProt P43235); experiment: Human cathepsin K peptidase activity assay (fluorogenic AMC substrate), apparent inhibition constant; type: biochemical; details: read-out: Ki (inhibitors of cathepsin K)
T1 construct: purchased Dr. Boris Turk (Josef Stefan Institute, Ljubljana, Slovenia)
T1 sequence (P43235 115-329): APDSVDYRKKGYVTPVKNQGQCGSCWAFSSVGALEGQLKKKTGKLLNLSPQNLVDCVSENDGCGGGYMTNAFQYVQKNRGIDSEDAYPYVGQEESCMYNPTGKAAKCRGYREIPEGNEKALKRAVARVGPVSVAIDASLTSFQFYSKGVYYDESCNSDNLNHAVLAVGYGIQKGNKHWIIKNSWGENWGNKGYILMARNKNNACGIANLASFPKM

Ki, < 50 µM:
CCC(Cc1ccsc1)NC(=O)N1CC[C@@H]2[C@H]1C(=O)CN2C(=O)N1CCCC1 (stereo partly drawn) [Example 32, (3aR,6aS)-6-Oxo-4-(pyrrolidine-1-carbonyl)-N-(1-(thiophen-3-yl)butan-2-yl)hexahydropyrrolo[3,2-b]pyrrole-1(2H)-carboxamide]
CCC(Cc1cccs1)NC(=O)N1CC[C@@H]2[C@H]1C(=O)CN2C(=O)c1ccccc1 (stereo partly drawn) [Example 33, (3aR,6aS)-4-Benzoyl-6-oxo-N-(1-(thiophen-2-yl)butan-2-yl)hexahydropyrrolo[3,2-b]pyrrole-1(2H)-carboxamide]
CCC(Cc1cccs1)NC(=O)N1CC[C@@H]2[C@H]1C(=O)CN2C(=O)N1CCCC1 (stereo partly drawn) [Example 34, (3aR,6aS)-6-Oxo-4-(pyrrolidine-1-carbonyl)-N-(1-(thiophen-2-yl)butan-2-yl)hexahydropyrrolo[3,2-b]pyrrole-1(2H)-carboxamide]
O=C1CN(C(=O)c2ccccc2)[C@@H]2CCN(C(=O)NCC3(COc4ccccc4)CCC3)[C@H]12 [Example 35]
CC(C)CC(CCc1cccs1)NC(=O)N1CC[C@@H]2[C@H]1C(=O)CN2C(=O)c1ccccc1 (stereo partly drawn) [Example 36, (3aR,6aS)-4-Benzoyl-N-(5-methyl-1-(thiophen-2-yl)hexan-3-yl)-6-oxohexahydro pyrrolo[3,2-b]pyrrole-1(2H)-carboxamide]
Cc1ccc(Cl)c(CNC(=O)N2CC[C@@H]3[C@H]2C(=O)CN3C(=O)c2ccccc2)c1F [Example 37, (3aR,6aS)-4-Benzoyl-N-(6-chloro-2-fluoro-3-methylbenzyl)-6-oxohexahydro pyrrolo[3,2-b]pyrrole-1(2H)-carboxamide]
Cc1ccc(Cl)c(CNC(=O)N2CC[C@@H]3[C@H]2C(=O)CN3C(=O)N2CCCC2)c1F [Example 38]
O=C1CN(C(=O)c2ccccc2)[C@@H]2CCN(C(=O)Nc3ccccc3-c3ccccc3)[C@H]12 [Example 39]
CCOc1ccccc1NC(=O)N1CC[C@@H]2[C@H]1C(=O)CN2C(=O)c1ccccc1 [Example 40, (3aR,6aS)-4-Benzoyl-N-(2-ethoxyphenyl)-6-oxohexahydropyrrolo[3,2-b]pyrrole-1(2H)-carboxamide]
CCCc1ccccc1NC(=O)N1CC[C@@H]2[C@H]1C(=O)CN2C(=O)c1ccccc1 [Example 41, (3aR,6aS)-4-Benzoyl-6-oxo N-(2-propylphenyl)hexahydropyrrolo[3,2-b]pyrrole-1(2H)-carboxamide]
O=C1CN(C(=O)c2ccccc2)[C@@H]2CCN(C(=O)Nc3cc(C(F)(F)F)ccc3Cl)[C@H]12 [Example 42, (3a,6aS)-4-Benzoyl-N-(2-chloro-5-(trifluoromethyl)phenyl)-6-oxohexahydropyrrolo[3,2-b]pyrrole-1(2H)-carboxamide]
CCC(Cc1ccsc1)NC(=O)N1CC[C@H]2OCC(=O)[C@H]21 (stereo partly drawn) [Example 43, (3aS,6aR)-3-Oxo-N-(1-(thiophen-3-yl)butan-2-yl)tetrahydro-2H-furo[3,2-b]pyrrole-4(5H)carboxamide]
CCC(Cc1cccs1)NC(=O)N1CC[C@H]2OCC(=O)[C@H]21 (stereo partly drawn) [Example 44, (3aS,6aR)-3-Oxo-N-(1-(thiophen-2-yl)butan-2-yl)tetrahydro-2H-furo[3,2-b]pyrrole-4(5H)-carboxamide]
O=C1CO[C@@H]2CCN(C(=O)NCC3(COc4ccccc4)CCC3)[C@H]12 [Example 45, (3aS,6aR)-3-Oxo-N-((1-(phenoxymethyl)cyclobutyl)methyl)tetrahydro-2H-furo[3,2-b]pyrrole-4(5H)-carboxamide]
CC(C)CC(CCc1cccs1)NC(=O)N1CC[C@H]2OCC(=O)[C@H]21 (stereo partly drawn) [Example 46, (3aS,6aR)—N-(5-Methyl-1-(thiophen-2-yl)hexan-3-yl)-3-oxotetrahydro-2H-furo[3,2-b]pyrrole-4(5H)-carboxamide]
Cc1ccc(Cl)c(CNC(=O)N2CC[C@H]3OCC(=O)[C@H]32)c1F [Example 47, (3aS,6aR)—N-(6-Chloro-2-fluoro-3-methylbenzyl)-3-oxotetrahydro-2H-furo[3,2-b]pyrrole-4(5H)-carboxamide]
O=C1CO[C@@H]2CCN(C(=O)Nc3ccccc3-c3ccccc3)[C@H]12 [Example 48, (3aS,6aR)—N-(Biphenyl-2-yl)-3-oxotetrahydro-2H-furo[3,2-b]pyrrole-4(5H)carboxamide]
CCOc1ccccc1NC(=O)N1CC[C@H]2OCC(=O)[C@H]21 [Example 49, (3aS,6aR)—N-(2-Ethoxyphenyl)-3-oxotetrahydro-2H-furo[3,2-b]pyrrole-4(5H)-carboxamide]
CCCc1ccccc1NC(=O)N1CC[C@H]2OCC(=O)[C@H]21 [Example 50, (3aS,6aR)-3-Oxo-N-(2-propylphenyl)tetrahydro-2H-furo[3,2-b]pyrrole-4(5H)-carboxamide]
O=C1CO[C@@H]2CCN(C(=O)Nc3cc(C(F)(F)F)ccc3Cl)[C@H]12 [Example 51, (3aS,6aR)—N-(2-Chloro-5-(trifluoromethyl)phenyl)-3-oxotetrahydro-2H-furo[3,2-b]pyrrole-4(5H)-carboxamide]
